Results are given in words; binding and its absence hold for the method and conditions named. In cells and extracts the contact can be indirect. Some results given as binding are weak or reduced against the parent protein; the word gives no strength.
Target: p65 (construct of Figure S10C) (mouse) (UniProt Q04207)
Experiment: co-IP; exogenous IP; HEK293T transfected with plasmids (PEI); IP buffer 50 mM Tris-HCl pH 7.4, 150 mM NaCl, 1% Triton X-100; anti-HA, anti-Flag or anti-Myc overnight, protein A/G agarose at 4°C; empty vectors or anti-IgG as control

Chains of the proteins cited; added tags and fusions are not shown. Lines headed by an entry give the natural chain unless they say otherwise; changes in a name come on top.
UniProt Q04207: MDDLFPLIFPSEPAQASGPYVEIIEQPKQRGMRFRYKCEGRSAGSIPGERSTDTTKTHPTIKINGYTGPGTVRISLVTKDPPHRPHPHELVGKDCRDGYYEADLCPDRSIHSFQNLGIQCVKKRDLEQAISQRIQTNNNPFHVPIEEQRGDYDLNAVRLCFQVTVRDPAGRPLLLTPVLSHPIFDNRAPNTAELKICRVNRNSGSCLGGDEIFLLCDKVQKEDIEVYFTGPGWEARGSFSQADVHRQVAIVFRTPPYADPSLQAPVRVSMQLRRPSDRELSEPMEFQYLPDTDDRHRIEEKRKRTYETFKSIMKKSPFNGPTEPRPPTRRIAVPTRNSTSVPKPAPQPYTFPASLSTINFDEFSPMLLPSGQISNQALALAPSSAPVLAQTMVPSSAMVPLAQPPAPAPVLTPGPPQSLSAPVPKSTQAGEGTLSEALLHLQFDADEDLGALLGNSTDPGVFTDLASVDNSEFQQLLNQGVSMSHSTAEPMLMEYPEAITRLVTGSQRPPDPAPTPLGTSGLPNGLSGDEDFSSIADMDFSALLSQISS

binding: binds
B1: Kat8 (enzyme, UniProt Q9D1P2 1-458)
chain: MAAQGATAAVAATTSGTVGEGEPGPGENAAVEGPARSPGRVSPPTPARGEPEVTVEIGETYLCRRPDSTWHSAEVIQSRVNDQEGREEFYVHYVGFNRRLDEWVDKNRLALTKTVKDAVQKNSEKYLSELAEQPERKITRNQKRKHDEINHVQKTYAEMDPTTAALEKEHEAITKVKYVDKIHIGNYEIDAWYFSPFPEDYGKQPKLWLCEYCLKYMKFEKSYRFHLGQCQWRQPPGKEIYRKSNISVYEVDGKDHKIYCQNLCLLAKLFLDHKTLYFDVEPFVFYILTEVDRQGAHIVGYFSKEKESPDGNNVACILTLPPYQRRGYGKFLIAFSYELSKLESTVGSPEKPLSDLGKLSYRSYWSWVLLEILRDFRGTLSIKDLSQMTSITQNDIISTLQSLNMVKYWKGQHVICVTPKLVEEHLKSAQYKKPPITVDSVCLKWAPPKHKQVKLSKK
